# Results published in PubChem BioAssay AID248 (DTP/NCI, 2004).
# The list does not hold the whole screen: it is rich in T/C values a quarter to a half above the control, in often repeated tests (any T/C) and in doses without a T/C. Further doses and runs are listed elsewhere. T/C: endpoint of the treated group in % of that of the vehicle group. Some entries give survivors of the animals treated and no T/C: the source files T/C as zero there, which appears to mark a toxic dose or a test without result, not a measured value. Some doses without a T/C left all or most animals alive at the check, yet need not have been tolerated: survival well below the control is almost never listed, so the zero probably covers shortened survival too. Counts of survivors are from the toxicity check (mostly the fifth day) where no day follows; animals may have died later. Schedules are NCI's codes, taken here to give the interval after Q, in days (D) or hours (H), and the number of doses after X. Some doses were run more than once; their values stand side by side, smallest first. Where survival is the endpoint, this PubChem deposit counts one and a half times the control or more as active, and values a quarter to a half above the control carry no call in these data; other NCI protocols may use other cut-offs.
# Test system: L1210 leukemia ip in BDF1 mice, survival T/C
# Test: NCI In Vivo Anticancer Drug Screen. Data for tumor model L1210 Leukemia (intraperitoneal) in B6D2F1 (BDF1) mice
# Details: T/C endpoint: mean survival time, higher T/C = longer survival
# [1] = dose: 400.0 mg/kg/injection, schedule: Q01DX009 (ip), vehicle: saline with Tween-80
smiles,measurement,setting,value
O=NN(CCCl)C(=O)N1CCN(C(=O)N(CCCl)N=O)CC1,T/C,"dose: 50.0 mg/kg/injection, schedule: Q01DX001 (ip), vehicle: carboxymethylcellulose (CMC)",127 % of control
same,T/C,"dose: 100.0 mg/kg/injection, schedule: Q01DX001 (ip), vehicle: carboxymethylcellulose (CMC)",127 % of control
same,survivor count,"dose: 500.0 mg/kg/injection, schedule: Q01DX001 (ip), vehicle: carboxymethylcellulose (CMC)",6 of 6
same,survivor count,"dose: 600.0 mg/kg/injection, schedule: Q01DX001 (ip), vehicle: carboxymethylcellulose (CMC)",5 of 6
same,survivor count,"dose: 800.0 mg/kg/injection, schedule: Q01DX001 (ip), vehicle: carboxymethylcellulose (CMC)",6 of 6
same,survivor count,"dose: 1000.0 mg/kg/injection, schedule: Q01DX001 (ip), vehicle: carboxymethylcellulose (CMC)",6 of 6
CCN(CC)CCN(C)C(=O)C1C(c2ccccc2)C1c1ccccc1 (stereo not given),survivor count,"dose: 100.0 mg/kg/injection, schedule: Q04DX002 (ip), vehicle: Klucel (hydroxypropylcellulose) (HPC)",1 of 3 and 3 of 3
same,survivor count,"dose: 200.0 mg/kg/injection, schedule: Q04DX002 (ip), vehicle: Klucel (hydroxypropylcellulose) (HPC)",0 of 3
same,survivor count,"dose: 400.0 mg/kg/injection, schedule: Q04DX002 (ip), vehicle: Klucel (hydroxypropylcellulose) (HPC)",0 of 3
COC(=O)NC1CC(O)C(CO)C1 (stereo not given),survivor count,"dose: 200.0 mg/kg/injection, schedule: Q01DX009 (ip), vehicle: Klucel (hydroxypropylcellulose) (HPC)",3 of 3
Cc1ccc(Cl)cc1NC(=S)N(C)C,survivor count,"dose: 400.0 mg/kg/injection, schedule: Q04DX002 (ip), vehicle: saline with Tween-80",1 of 3
CCCCCCCCCCCCCC[N+](C)(C)Cc1cc(=O)c(O)co1,survivor count,"dose: 200.0 mg/kg/injection, schedule: Q01DX015 (ip), vehicle: saline",2 of 6
same,survivor count,"dose: 200.0 mg/kg/injection, schedule: Q04DX003 (ip), vehicle: Klucel (hydroxypropylcellulose) (HPC)",1 of 3
same,survivor count,"dose: 400.0 mg/kg/injection, schedule: Q01DX015 (ip), vehicle: saline",0 of 6
same,survivor count,"dose: 400.0 mg/kg/injection, schedule: Q04DX003 (ip), vehicle: Klucel (hydroxypropylcellulose) (HPC)",0 of 3
Cc1cc(NCCN(C(C)C)C(C)C)nc(Nc2nc3ccc(Cl)cc3[nH]2)n1,survivor count,"dose: 25.0 mg/kg/injection, schedule: Q01DX009 (ip), vehicle: saline with Tween-80",6 of 6
same,survivor count,"dose: 100.0 mg/kg/injection, schedule: Q01DX009 (ip), vehicle: saline with Tween-80",6 of 6
same,survivor count,"dose: 200.0 mg/kg/injection, schedule: Q01DX009 (ip), vehicle: saline with Tween-80",1 of 6
same,survivor count,[1],0 of 6
CC(C)(C)C(=O)CC(=O)C(C)(C)C.CC(C)(C)C(=O)CC(=O)C(C)(C)C.CC(C)(C)C(=O)CC(=O)C(C)(C)C.[Pr],survivor count,[1],6 of 6
